{"source": "PubChem BioAssay AID248", "about": "(DTP/NCI, 2004)", "tested_on": "L1210 leukemia ip in BDF1 mice, survival T/C", "assay": "NCI In Vivo Anticancer Drug Screen. Data for tumor model L1210 Leukemia (intraperitoneal) in B6D2F1 (BDF1) mice", "conditions": "T/C endpoint: mean survival time, higher T/C = longer survival", "key": {"[1]": {"conditions": "dose: 400.0 mg/kg/injection, schedule: Q01DX001 (ip), vehicle: saline"}, "[2]": {"conditions": "dose: 400.0 mg/kg/injection, schedule: Q01DX001 (ip), vehicle: carboxymethylcellulose (CMC)"}, "[3]": {"conditions": "dose: 400.0 mg/kg/injection, schedule: Q01DX009 (ip), vehicle: saline"}, "[4]": {"conditions": "dose: 100.0 mg/kg/injection, schedule: Q04DX003 (ip), vehicle: saline with Tween-80"}, "[5]": {"conditions": "dose: 200.0 mg/kg/injection, schedule: Q04DX003 (ip), vehicle: saline with Tween-80"}, "[6]": {"conditions": "dose: 400.0 mg/kg/injection, schedule: Q04DX003 (ip), vehicle: saline with Tween-80"}}, "note": "The list shows only some results of the screen, not a fair sample: it is rich in T/C values a quarter to a half above the control, in often repeated tests (any T/C) and in doses without a T/C. Other doses and runs of a compound stand elsewhere. T/C gives the treated animals as a percentage of the vehicle group. Some doses have a count of surviving animals in place of a T/C: the source holds a T/C of zero for them, seemingly a mark for toxic or unscored doses. Some doses without a T/C left all or most animals alive at the check, yet need not have been tolerated: the source hardly ever lists a survival T/C far under the control, and the zero likely stands for such cases as well. Survivors were counted at the toxicity check, usually on the fifth day, unless a day is given; later deaths do not show. Schedules are NCI's codes, read here as Q, the interval in days (D) or hours (H), X, the number of doses. Some structures stand for samples that the source files as different forms (salt, stereo form or complex); doses refer to the form tested. Some entries hold several experiments; their values stand side by side, smallest first. Where survival is the endpoint, this PubChem deposit counts one and a half times the control or more as active, and values a quarter to a half above the control carry no call in these data; other NCI protocols may use other cut-offs. Some T/C values carry the count of animals alive at the toxicity check (mostly the fifth day); where none is given, no animal had died by that day."}
{"smiles": "CN1C2CCC1CC(OC(c1ccccc1)c1ccccc1)C2", "note": "(stereo unspecified)", "values": [{"measurement": "survivor count", "setting": "dose: 26.0 mg/kg/injection, schedule: Q01DX009 (ip), vehicle: saline", "result": "2 of 6"}, {"measurement": "survivor count", "setting": "dose: 40.0 mg/kg/injection, schedule: Q01DX009 (ip), vehicle: saline", "result": "0 of 6 and 1 of 6"}, {"measurement": "survivor count", "setting": "dose: 50.0 mg/kg/injection, schedule: Q01DX009 (ip), vehicle: saline", "result": "0 of 6"}, {"measurement": "survivor count", "setting": "dose: 80.0 mg/kg/injection, schedule: Q01DX001 (ip), vehicle: saline", "result": "0 of 6"}, {"measurement": "survivor count", "setting": "dose: 80.0 mg/kg/injection, schedule: Q01DX009 (ip), vehicle: saline", "result": "0 of 6"}, {"measurement": "survivor count", "setting": "dose: 100.0 mg/kg/injection, schedule: Q01DX001 (ip), vehicle: saline", "result": "0 of 6"}, {"measurement": "survivor count", "setting": "dose: 125.0 mg/kg/injection, schedule: Q01DX001 (ip), vehicle: acetone", "result": "0 of 6"}, {"measurement": "survivor count", "setting": "dose: 160.0 mg/kg/injection, schedule: Q01DX009 (ip), vehicle: saline", "result": "0 of 6"}, {"measurement": "survivor count", "setting": "dose: 200.0 mg/kg/injection, schedule: Q01DX001 (ip), vehicle: saline", "result": "0 of 6"}, {"measurement": "survivor count", "setting": "dose: 250.0 mg/kg/injection, schedule: Q01DX001 (ip), vehicle: acetone", "result": "1 of 6"}, {"measurement": "survivor count", "setting": "dose: 320.0 mg/kg/injection, schedule: Q01DX009 (ip), vehicle: saline", "result": "0 of 6"}, {"measurement": "survivor count", "setting": "[1]", "result": "0 of 6"}, {"measurement": "survivor count", "setting": "dose: 500.0 mg/kg/injection, schedule: Q01DX001 (ip), vehicle: acetone", "result": "0 of 6"}, {"measurement": "survivor count", "setting": "dose: 800.0 mg/kg/injection, schedule: Q01DX001 (ip), vehicle: saline", "result": "0 of 6"}, {"measurement": "survivor count", "setting": "dose: 1000.0 mg/kg/injection, schedule: Q01DX001 (ip), vehicle: acetone", "result": "0 of 6"}]}
{"smiles": "COc1cc(C=Nc2cccc(F)c2)ccc1N(CCCl)CCCl", "values": [{"measurement": "survivor count", "setting": "dose: 20.0 mg/kg/injection, schedule: Q01DX009 (ip), vehicle: acetone", "result": "2 of 6"}, {"measurement": "T/C", "setting": "dose: 20.0 mg/kg/injection, schedule: Q01DX009 (ip), vehicle: carboxymethylcellulose (CMC)", "result": "129 % of control"}, {"measurement": "survivor count", "setting": "dose: 40.0 mg/kg/injection, schedule: Q01DX009 (ip), vehicle: acetone", "result": "0 of 6"}, {"measurement": "T/C", "setting": "dose: 40.0 mg/kg/injection, schedule: Q01DX009 (ip), vehicle: carboxymethylcellulose (CMC)", "result": "126 and 141 % of control"}, {"measurement": "survivor count", "setting": "dose: 80.0 mg/kg/injection, schedule: Q01DX009 (ip), vehicle: acetone", "result": "0 of 6"}, {"measurement": "T/C", "setting": "dose: 80.0 mg/kg/injection, schedule: Q01DX009 (ip), vehicle: carboxymethylcellulose (CMC)", "result": "125 % of control"}, {"measurement": "survivor count", "setting": "dose: 100.0 mg/kg/injection, schedule: Q01DX001 (ip), vehicle: acetone", "result": "0 of 6"}, {"measurement": "T/C", "setting": "dose: 150.0 mg/kg/injection, schedule: Q01DX001 (ip), vehicle: saline", "result": "141 % of control [5 of 6 alive]"}, {"measurement": "survivor count", "setting": "dose: 160.0 mg/kg/injection, schedule: Q01DX009 (ip), vehicle: acetone", "result": "0 of 6"}, {"measurement": "survivor count", "setting": "dose: 160.0 mg/kg/injection, schedule: Q01DX009 (ip), vehicle: carboxymethylcellulose (CMC)", "result": "6 of 6"}, {"measurement": "survivor count", "setting": "dose: 200.0 mg/kg/injection, schedule: Q01DX001 (ip), vehicle: acetone", "result": "0 of 6"}, {"measurement": "survivor count", "setting": "dose: 400.0 mg/kg/injection, schedule: Q01DX001 (ip), vehicle: acetone", "result": "0 of 6"}, {"measurement": "survivor count", "setting": "[2]", "result": "1 of 6"}, {"measurement": "survivor count", "setting": "[1]", "result": "0 of 6"}]}
{"smiles": "O=C(O)c1cc2ccccc2s1", "values": [{"measurement": "survivor count", "setting": "dose: 400.0 mg/kg/injection, schedule: Q04DX003 (ip), vehicle: Klucel (hydroxypropylcellulose) (HPC)", "result": "0 of 6"}]}
{"smiles": "CC(C)(O)C#Cc1ccccc1", "values": [{"measurement": "survivor count", "setting": "dose: 400.0 mg/kg/injection, schedule: Q01DX005 (ip), vehicle: Klucel (hydroxypropylcellulose) (HPC)", "result": "0 of 3"}]}
{"smiles": "O=C(O)/C(=C\\c1ccc([N+](=O)[O-])cc1)c1cccc2ccccc12", "values": [{"measurement": "survivor count", "setting": "dose: 400.0 mg/kg/injection, schedule: Q01DX009 (ip), vehicle: Klucel (hydroxypropylcellulose) (HPC)", "result": "0 of 6"}]}
{"smiles": "Cn1c(O)c(N=NC(N)=S)c2ccccc21", "values": [{"measurement": "survivor count", "setting": "dose: 125.0 mg/kg/injection, schedule: Q01DX015 (ip), vehicle: carboxymethylcellulose (CMC)", "result": "6 of 6"}, {"measurement": "survivor count", "setting": "dose: 250.0 mg/kg/injection, schedule: Q01DX015 (ip), vehicle: carboxymethylcellulose (CMC)", "result": "6 of 6"}, {"measurement": "survivor count", "setting": "dose: 500.0 mg/kg/injection, schedule: Q01DX015 (ip), vehicle: carboxymethylcellulose (CMC)", "result": "1 of 6"}]}
{"smiles": "CC12NC(=O)NC1(C)NC(=O)N2", "note": "(stereo unspecified)", "values": [{"measurement": "survivor count", "setting": "[3]", "result": "1 of 6"}]}
{"smiles": "COc1ccc(C(=O)CCN2CCC(O)(c3ccccc3)CC2)cc1", "values": [{"measurement": "survivor count", "setting": "[4]", "result": "6 of 6"}, {"measurement": "survivor count", "setting": "[5]", "result": "1 of 6"}, {"measurement": "survivor count", "setting": "[6]", "result": "1 of 6"}]}
{"smiles": "c1ccc(CNCCCNCc2ccccn2)nc1", "values": [{"measurement": "survivor count", "setting": "dose: 200.0 mg/kg/injection, schedule: Q01DX009 (ip), vehicle: saline with Tween-80", "result": "5 of 6"}]}
{"smiles": "CCCOC(C)CC(c1ccccc1)(c1ccccc1)c1ccccc1", "note": "(stereo unspecified)", "values": [{"measurement": "survivor count", "setting": "dose: 50.0 mg/kg/injection, schedule: Q01DX009 (ip), vehicle: saline with Tween-80", "result": "3 of 3"}, {"measurement": "survivor count", "setting": "dose: 100.0 mg/kg/injection, schedule: Q01DX009 (ip), vehicle: saline with Tween-80", "result": "3 of 3"}]}
{"smiles": "CCN(CC)CCN(C)CC(=O)Nc1cccc(Cl)c1C", "values": [{"measurement": "survivor count", "setting": "dose: 225.0 mg/kg/injection, schedule: Q01DX009 (ip), vehicle: saline", "result": "0 of 6"}, {"measurement": "survivor count", "setting": "dose: 300.0 mg/kg/injection, schedule: Q01DX001 (ip), vehicle: saline", "result": "0 of 6"}]}
{"smiles": "Nc1nc(N)c2nc(CNc3ccc(C(=O)NCC(=O)O)cc3)cnc2n1", "values": [{"measurement": "survivor count", "setting": "dose: 80.0 mg/kg/injection, schedule: Q01DX009 (ip), vehicle: Klucel (hydroxypropylcellulose) (HPC)", "result": "3 of 5"}]}
{"smiles": "CC1CCCC(CN=Cc2ccc(O)cc2O)[N-]1.CC1CCCC(CN=Cc2ccc(O)cc2O)[N-]1.[Ni+2]", "note": "(stereo unspecified)", "values": [{"measurement": "survivor count", "setting": "[5]", "result": "5 of 6"}, {"measurement": "survivor count", "setting": "[6]", "result": "3 of 6"}]}
{"smiles": "CCOP(=S)(S)OCC.[Pd]", "values": [{"measurement": "survivor count", "setting": "dose: 50.0 mg/kg/injection, schedule: Q01DX009 (ip), vehicle: other", "result": "4 of 6"}, {"measurement": "survivor count", "setting": "dose: 100.0 mg/kg/injection, schedule: Q01DX009 (ip), vehicle: other", "result": "1 of 6"}]}
{"smiles": "CCN(CC)Cc1cc(N)ccc1O", "values": [{"measurement": "survivor count", "setting": "[3]", "result": "0 of 6"}]}
{"smiles": "Cc1coc(NS(=O)(=O)c2ccc(N=Nc3cc(N=Nc4ccccc4)c(N)nc3N)cc2)c1C", "values": [{"measurement": "survivor count", "setting": "[2]", "result": "2 of 4"}]}
{"smiles": "CC1=C(N)C(=O)C2=C(C1=O)N1CC3C(N3C)C1(O)C2COC(N)=O", "note": "(stereo unspecified)", "values": [{"measurement": "T/C", "setting": "dose: 35.0 mg/kg/injection, schedule: Q01DX001 (ip), vehicle: acetone", "result": "135 % of control"}]}
{"smiles": "O=C1C=C(O/C=C/C(C(F)(F)F)C(F)(F)F)C(=O)c2ccccc21", "values": [{"measurement": "survivor count", "setting": "dose: 25.0 mg/kg/injection, schedule: Q01DX009 (ip), vehicle: Klucel (hydroxypropylcellulose) (HPC)", "result": "4 of 6"}, {"measurement": "survivor count", "setting": "dose: 50.0 mg/kg/injection, schedule: Q01DX009 (ip), vehicle: Klucel (hydroxypropylcellulose) (HPC)", "result": "2 of 6"}, {"measurement": "survivor count", "setting": "dose: 115.0 mg/kg/injection, schedule: Q01DX001 (ip), vehicle: Klucel (hydroxypropylcellulose) (HPC)", "result": "1 of 6"}, {"measurement": "survivor count", "setting": "dose: 170.0 mg/kg/injection, schedule: Q01DX001 (ip), vehicle: Klucel (hydroxypropylcellulose) (HPC)", "result": "2 of 6"}]}
{"smiles": "C[n+]1c2c3ccccc3scc-2c2ccccc21", "values": [{"measurement": "survivor count", "setting": "[4]", "result": "0 of 6"}, {"measurement": "survivor count", "setting": "[5]", "result": "1 of 6"}, {"measurement": "survivor count", "setting": "[6]", "result": "0 of 6"}]}
{"smiles": "c1ccc2c(c1)CCN(CCCCN1CCc3ccccc3C1)C2", "values": [{"measurement": "survivor count", "setting": "dose: 200.0 mg/kg/injection, schedule: Q04DX003 (ip), vehicle: saline", "result": "0 of 6"}, {"measurement": "survivor count", "setting": "dose: 400.0 mg/kg/injection, schedule: Q04DX003 (ip), vehicle: saline", "result": "0 of 6"}]}
